One experiment addresses T1, Cdk8-HA (S. cerevisiae) (UniProt P39073).
T1 sequence: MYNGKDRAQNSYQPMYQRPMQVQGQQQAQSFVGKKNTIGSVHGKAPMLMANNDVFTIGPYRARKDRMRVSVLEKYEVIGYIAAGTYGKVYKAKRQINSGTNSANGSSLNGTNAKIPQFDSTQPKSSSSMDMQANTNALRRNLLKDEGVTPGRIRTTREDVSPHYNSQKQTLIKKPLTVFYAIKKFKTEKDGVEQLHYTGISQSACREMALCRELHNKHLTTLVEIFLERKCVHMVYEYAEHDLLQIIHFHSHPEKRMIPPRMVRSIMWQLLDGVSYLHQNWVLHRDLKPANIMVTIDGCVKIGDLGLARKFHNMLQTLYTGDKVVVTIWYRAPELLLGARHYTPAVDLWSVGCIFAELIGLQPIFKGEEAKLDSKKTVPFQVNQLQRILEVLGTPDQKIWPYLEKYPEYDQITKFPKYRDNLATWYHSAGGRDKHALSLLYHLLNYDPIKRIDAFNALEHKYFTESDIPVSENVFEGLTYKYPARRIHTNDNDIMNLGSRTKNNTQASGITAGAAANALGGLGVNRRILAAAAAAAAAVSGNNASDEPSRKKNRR
The experiment is described as follows: co-IP; protein extracts of mid-log wild-type yeast with Snf1-myc and Cdk8-HA on single copy plasmids, treated with 0.4 mM H2O2 for a time course; immunoprecipitated with anti-HA, Western blot. A general note: Immunoblotting shows a protein as a band on a membrane.

For experiment [1], the target named is T2, Grr1 (wild-type), Gal4 binding domain bait (S. cerevisiae) (UniProt P24814).
T2 sequence: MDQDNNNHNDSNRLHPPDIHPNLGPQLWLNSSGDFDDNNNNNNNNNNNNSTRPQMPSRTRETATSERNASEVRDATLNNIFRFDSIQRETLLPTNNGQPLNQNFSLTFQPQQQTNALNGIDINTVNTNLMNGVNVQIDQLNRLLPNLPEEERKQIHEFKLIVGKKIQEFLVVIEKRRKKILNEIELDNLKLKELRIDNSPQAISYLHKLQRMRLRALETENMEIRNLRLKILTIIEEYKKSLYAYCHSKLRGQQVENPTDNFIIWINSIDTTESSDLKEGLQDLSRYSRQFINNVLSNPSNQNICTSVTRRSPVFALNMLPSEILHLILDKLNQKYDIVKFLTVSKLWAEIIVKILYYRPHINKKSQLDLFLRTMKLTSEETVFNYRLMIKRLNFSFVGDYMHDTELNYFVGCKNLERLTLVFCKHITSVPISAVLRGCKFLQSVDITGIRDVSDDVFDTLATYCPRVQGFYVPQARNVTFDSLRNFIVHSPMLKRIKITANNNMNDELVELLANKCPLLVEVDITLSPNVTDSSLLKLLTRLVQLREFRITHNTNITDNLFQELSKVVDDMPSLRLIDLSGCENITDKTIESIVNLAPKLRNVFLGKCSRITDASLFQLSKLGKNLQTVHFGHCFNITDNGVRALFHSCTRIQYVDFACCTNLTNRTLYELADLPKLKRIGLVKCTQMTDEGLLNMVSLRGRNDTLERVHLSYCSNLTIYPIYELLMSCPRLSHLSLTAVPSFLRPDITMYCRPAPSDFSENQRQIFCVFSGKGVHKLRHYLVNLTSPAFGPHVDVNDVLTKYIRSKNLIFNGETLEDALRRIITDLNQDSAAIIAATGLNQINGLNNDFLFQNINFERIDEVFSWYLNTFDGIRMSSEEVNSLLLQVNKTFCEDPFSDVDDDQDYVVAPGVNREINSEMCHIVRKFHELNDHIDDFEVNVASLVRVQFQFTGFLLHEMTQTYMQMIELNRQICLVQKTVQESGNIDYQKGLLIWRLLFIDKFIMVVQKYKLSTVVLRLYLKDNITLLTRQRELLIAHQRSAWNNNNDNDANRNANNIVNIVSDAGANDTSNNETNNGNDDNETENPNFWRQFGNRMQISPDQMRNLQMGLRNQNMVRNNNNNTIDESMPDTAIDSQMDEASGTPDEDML
The experiment is described as follows: two-hybrid; Gal4 yeast two-hybrid in PJ69-4a cells; Med13 fragment on the Gal4 activating domain (prey), bait on the binding domain; growth on -TRP, -LEU, -HIS, -ADE medium (dual HIS3 and ADE2 reporter genes). (In general: A reporter such as luciferase makes a cellular process visible.)

Experiment [2] concerns the target T3, Psk1 (PAS kinase), two-hybrid bait (S. cerevisiae) (UniProt P31374).
T3 sequence: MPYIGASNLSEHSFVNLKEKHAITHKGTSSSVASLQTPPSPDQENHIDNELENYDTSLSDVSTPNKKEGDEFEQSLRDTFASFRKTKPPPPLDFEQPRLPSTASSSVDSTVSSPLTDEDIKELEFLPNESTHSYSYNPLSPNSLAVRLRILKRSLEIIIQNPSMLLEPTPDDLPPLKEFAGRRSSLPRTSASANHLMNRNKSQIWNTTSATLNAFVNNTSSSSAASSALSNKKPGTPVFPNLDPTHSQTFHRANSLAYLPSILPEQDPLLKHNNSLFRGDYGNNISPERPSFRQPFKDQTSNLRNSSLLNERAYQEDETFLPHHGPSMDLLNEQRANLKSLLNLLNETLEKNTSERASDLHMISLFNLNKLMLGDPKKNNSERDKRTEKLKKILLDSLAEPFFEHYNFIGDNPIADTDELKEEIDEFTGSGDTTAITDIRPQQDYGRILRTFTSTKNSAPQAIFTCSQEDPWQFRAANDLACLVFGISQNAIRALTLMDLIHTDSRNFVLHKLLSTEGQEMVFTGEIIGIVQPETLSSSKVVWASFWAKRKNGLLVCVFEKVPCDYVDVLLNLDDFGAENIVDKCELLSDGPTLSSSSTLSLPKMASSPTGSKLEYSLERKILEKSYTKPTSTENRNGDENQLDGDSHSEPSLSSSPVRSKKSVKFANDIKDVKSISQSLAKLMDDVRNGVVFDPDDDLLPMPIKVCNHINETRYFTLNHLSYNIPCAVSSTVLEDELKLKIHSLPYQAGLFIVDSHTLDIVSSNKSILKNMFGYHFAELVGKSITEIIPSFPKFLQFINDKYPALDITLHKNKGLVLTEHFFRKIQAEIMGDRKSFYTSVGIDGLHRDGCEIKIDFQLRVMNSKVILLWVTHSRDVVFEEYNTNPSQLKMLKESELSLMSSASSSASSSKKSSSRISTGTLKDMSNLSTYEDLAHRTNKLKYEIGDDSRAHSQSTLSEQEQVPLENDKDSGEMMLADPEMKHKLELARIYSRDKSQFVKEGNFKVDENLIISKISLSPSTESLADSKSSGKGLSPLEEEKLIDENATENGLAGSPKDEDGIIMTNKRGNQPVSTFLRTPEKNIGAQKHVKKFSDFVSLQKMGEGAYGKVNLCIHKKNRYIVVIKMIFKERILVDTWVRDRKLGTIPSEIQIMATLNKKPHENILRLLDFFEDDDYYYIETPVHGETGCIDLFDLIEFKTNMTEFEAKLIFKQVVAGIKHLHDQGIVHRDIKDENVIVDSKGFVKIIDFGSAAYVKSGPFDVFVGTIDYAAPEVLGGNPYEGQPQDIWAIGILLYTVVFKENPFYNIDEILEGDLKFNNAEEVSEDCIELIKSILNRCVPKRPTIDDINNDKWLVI
Described as above.

These are yes or no findings as the source states them, for the method shown. For part of these data: Binding seen in cells or lysates may run through a third protein. Some binding calls cover weakened binding; strength is not graded here. Tags and fused reporters may be left off the sequences shown.

B1: Snf1-myc (enzyme, UniProt P06782 1-633)
chain: MSSNNNTNTAPANANSSHHHHHHHHHHHHHGHGGSNSTLNNPKSSLADGAHIGNYQIVKTLGEGSFGKVKLAYHTTTGQKVALKIINKKVLAKSDMQGRIEREISYLRLLRHPHIIKLYDVIKSKDEIIMVIEYAGNELFDYIVQRDKMSEQEARRFFQQIISAVEYCHRHKIVHRDLKPENLLLDEHLNVKIADFGLSNIMTDGNFLKTSCGSPNYAAPEVISGKLYAGPEVDVWSCGVILYVMLCRRLPFDDESIPVLFKNISNGVYTLPKFLSPGAAGLIKRMLIVNPLNRISIHEIMQDDWFKVDLPEYLLPPDLKPHPEEENENNDSKKDGSSPDNDEIDDNLVNILSSTMGYEKDEIYESLESSEDTPAFNEIRDAYMLIKENKSLIKDMKANKSVSDELDTFLSQSPPTFQQQSKSHQKSQVDHETAKQHARRMASAITQQRTYHQSPFMDQYKEEDSTVSILPTSLPQIHRANMLAQGSPAASKISPLVTKKSKTRWHFGIRSRSYPLDVMGEIYIALKNLGAEWAKPSEEDLWTIKLRWKYDIGNKTNTNEKIPDLMKMVIQLFQIETNNYLVDFKFDGWESSYGDDTTVSNISEDEMSTFSAYPFLHLTTKLIMELAVNSQSN
Turning to B1, the binding entry with Cdk8-HA (S. cerevisiae) is “binds”.

B2: Gal4 activating domain Med13^571-650 fusion protein (domain or fragment, UniProt P38931 571-650)
chain: KRKYLDIPIDEMTLPTSPLYMDPGAPLPVETPRDRRKSVFAPLNFNPIIENNVDNKYKSGGKFSFSPLQKEEALNFDISM
For the molecule B2, the binding entry in experiment [1] and in experiment [2] was “binds” in each case.

These data come from article PMC6116281.
